Over roughly 1,500 compounds, “activity” has its median near 2; the lowest 2% begin near -18. This is one part of the list. Activity calls are given as the source filed them.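 Rule for the calls: active = inhibition of at least 40% at 10 µM; inconclusive = no clear call, values can overlap the other calls; inactive = the rest.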

Protein sequences, listed by entry. Tags and fused reporters are not part of them. Lines headed by an entry give the natural chain unless they say otherwise; changes in a name come on top.
UniProt O00391: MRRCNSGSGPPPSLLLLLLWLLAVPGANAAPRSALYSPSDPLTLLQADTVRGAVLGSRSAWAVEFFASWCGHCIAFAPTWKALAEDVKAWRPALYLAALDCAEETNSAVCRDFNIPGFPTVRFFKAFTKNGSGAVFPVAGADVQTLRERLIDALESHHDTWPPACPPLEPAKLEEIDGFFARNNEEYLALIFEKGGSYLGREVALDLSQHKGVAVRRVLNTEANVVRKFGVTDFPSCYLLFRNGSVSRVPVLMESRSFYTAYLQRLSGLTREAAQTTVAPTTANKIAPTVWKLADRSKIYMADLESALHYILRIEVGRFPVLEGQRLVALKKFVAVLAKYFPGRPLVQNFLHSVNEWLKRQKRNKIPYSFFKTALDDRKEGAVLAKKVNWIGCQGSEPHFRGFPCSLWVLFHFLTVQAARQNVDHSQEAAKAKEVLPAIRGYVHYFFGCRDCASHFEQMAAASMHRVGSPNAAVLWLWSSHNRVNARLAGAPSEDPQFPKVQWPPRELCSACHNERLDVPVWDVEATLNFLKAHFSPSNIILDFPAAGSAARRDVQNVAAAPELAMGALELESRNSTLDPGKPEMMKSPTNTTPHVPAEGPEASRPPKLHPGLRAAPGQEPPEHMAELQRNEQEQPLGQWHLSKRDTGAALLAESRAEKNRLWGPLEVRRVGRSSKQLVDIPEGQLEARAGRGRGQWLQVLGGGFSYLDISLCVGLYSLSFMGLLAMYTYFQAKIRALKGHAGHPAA

For the experiment, the target named is Sulfhydryl oxidase 1 (Homo sapiens) (UniProt O00391). Description: QSOX1 enzyme inhibitors, confirmation, biochemical, ROS-Glo luminescence, single concentration (AID 1347421).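 Note: 0% = DMSO wells with enzyme and 100% = wells lacking QSOX1 enzyme.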 The following applies: recombinant hQSOX1, RNase A substrate, ROS-Glo H2O2 luminescence; at 10 µM.
As for `COc1cc(CN(C)C)ccc1OCC(O)CN(C)C1CCCCC1` (configuration not stated), the activity is inactive: -3.4%. Take `c1ccc(CC2CN(Cc3cnc(N4CCCC4)s3)CCO2)cc1` (configuration not stated): the activity is 5.1%.

In the case of `Cc1nc(NC(=O)N2CCCC2Cc2cccnc2)nn1C(C)C` (configuration not stated), the activity was 5.1%.

For the compound `O=C1CCCN1CCCNCc1ccccc1OCC(O)CN1CCCCC1` (configuration not stated), the activity came out at 8.7%. As to `O=C(Nc1ccc(S(=O)(=O)N2CCCCCC2)cc1)N1CCCCC1`, the activity was inactive: -15.7%. The same measure for `CC(Cc1cnccn1)NC(=O)CCc1nnc(CCC2CCCCC2)o1` (configuration not stated): inactive: -3.2%. Consider `CSc1ncc(CN2CCCC(C(=O)c3cccc(OC(C)C)c3)C2)cn1` (configuration not stated), for which the activity turned out to be 8.6%. As for `O=C1CC(C(=O)N2CCC(CO)(Cc3ccccc3)CC2)CN1Cc1ccncc1` (configuration not stated), the activity was inactive: -2%. In the case of `Cn1ncc(N2CCN(C(=O)NC3CCCCCC3)CC2)cc1=O`, the activity stood at 3%. The result for `O=C(c1ccc(-c2ccccc2)c(F)c1)C1CCCN(C(=O)CCc2cnccn2)C1` (configuration not stated) reads 9.5%; that for `COC(=O)c1ccccc1NC(=O)C1CCCN(S(C)(=O)=O)C1` (configuration not stated), 0.4%; that for `O=C1CCC(C(=O)N2CCN(CC3CCCC3)CC2)CN1Cc1ccccn1` (configuration not stated), inactive: -1.9%. The same measure for `CCN1CCN(CC(O)COc2cccc(CN(CC)Cc3ccncc3)c2)CC1` (configuration not stated): 5.2%; for `CC(C)(C)NC(=O)COc1cc(N2CCOCC2)c2ccccc2c1Cl`: inactive: -9.5%; for `Cn1cnc2cc(NC(=O)C3CCCCC3)ccc21`: 5%. The result for `CCOC(=O)c1cccc(CSc2n[nH]c(N)n2)c1` reads inactive: -1.9%; that for `O=C1CCCN1CCCC(=O)N1CCc2onc(-c3ccccc3F)c2C1`, 3.6%; that for `O=C(CCC(F)(F)F)N1CCOC(Cc2cccc3ccccc23)C1` (configuration not stated), inactive: -1.9%. Take `Nc1ncnc(N2CCCc3ccccc32)n1`: the activity is inactive: -0.4%. The result for `CN(C)CCN(CC1CCCN(Cc2ccccc2F)C1)C(=O)CCn1cccn1` (configuration not stated) reads 8.6%.

With `COc1cc(CNCc2nccn2C)ccc1OCC(O)CN1CCSCC1` (configuration not stated), the activity worked out at 1.1%. The same measure for `C=CCC(=O)N(CCOC)CC1CCCN(C2Cc3ccccc3C2)C1` (configuration not stated): 6.2%. `COc1ccccc1N1CCN(c2ncccc2CNC(=O)CN(C)C)CC1`: the activity was 1.1%. For `O=C(O)c1ccc(S(=O)(=O)N2CCSCC2)cc1`, the activity is inactive: -3%. Take `CCCNC(=O)c1nc(SC)ncc1Cl`: the activity was inactive: -17.1%. The result for `CCCCc1ncc(CN2CCc3onc(-c4ccccc4F)c3C2)[nH]1` reads inactive: -3.8%; that for `Cc1cc(C(=O)N2CCC3(CCCN(CC4CCCCC4)C3=O)C2)n[nH]1` (configuration not stated), inactive: -4.3%; that for `CCN(Cc1ccncc1)Cc1ccc(OC)cc1OCC(O)CN1CCCC1` (configuration not stated), 8.1%.

Regarding `Cn1cc(CN2CCCC(C(N)=O)C2)c(-c2ccc(C3CCCCC3)cc2)n1` (configuration not stated), the activity was found to be 6.3%. `C=CC[C@@H]1CC=C[C@@H](C)N1Cc1cn[nH]c1-c1cc(OC)c(OC)c(OC)c1`: the activity is inactive: -2.7%. For `Cc1nnc(SCC(=O)NC2CCCCC2)[nH]c1=O`, the activity is 7.5%. In the case of `Cn1c(CN2CCCC(CO)(Cc3ccc(F)cc3F)C2)nc2ccccc21` (configuration not stated), the activity was inactive: -0.4%. Turning to `CC(=O)Nc1ccc(C(=O)CSc2cc(C)c3ccccc3n2)cc1`, the activity was inactive: -0.4%. Consider `CN1CCN(C(=O)CCC2CCCN(C(=O)Cc3ccc4c(c3)OCO4)C2)CC1` (configuration not stated), for which the activity worked out at 0.8%. Take `COc1ccc(-c2nc(CN(CC3CC3)CC3CCCO3)c(C)o2)c(OC)c1` (configuration not stated): the activity is 1.5%. Consider `Cc1ccc(NC(=O)c2ccc(N)cc2)c(N)c1`, for which the activity was found to be 10.6%. In the case of `CN(C)C(=O)CN1CCN(Cc2c(C(=O)N3CCOCC3)nc3ccccn23)CC1`, the activity amounted to 0.5%.

On to `Cc1cc(CNCC2(c3cccc(F)c3)CCOC2)ccn1` (configuration not stated), for which the activity is 9.4%. The same measure for `CC(C)c1nc(CNC(=O)CCc2nnc(C3CCCCC3)o2)cs1`: 2.3%. As for `COc1cc(C)nc(NC(=O)Nc2cccc(Cl)c2)n1`, the activity was inactive: -2.3%. The same measure for `O=c1cc(N2CCNCC2)cnn1Cc1ccc(C(F)(F)F)nc1`: inactive: -1.2%. The same measure for `O=C1CCC(C(=O)N2CCC3(C=Cc4ccccc43)CC2)CN1CCc1ccccn1` (configuration not stated): 3.8%; for `O=C(NC1CCS(=O)(=O)C1)C(c1ccccc1)c1ccccc1` (configuration not stated): inactive: -13.7%; for `COc1ccc(CN2CC[C@@H](N(C)CCc3ccccn3)[C@H](O)C2)c(C)c1C`: 4.3%. With `O=C(NCCN1CCCCC1)c1coc(CN2CCN(c3ccccc3F)CC2)n1`, the activity was inactive: -0.2%. Take `CN(CCc1ccccc1)C1CCCN(C(=O)CCc2nc3ccccc3[nH]2)C1` (configuration not stated): the activity came out at 1.6%.

Turning to `Cc1nc(CN2CCN(c3nncc(-c4cccc5ccccc45)n3)CC2)cs1`, the activity stood at 2%. On to `CCN(CC)CC(O)COc1cc(CN(C)CCC2CCOCC2)ccc1OC` (configuration not stated), for which the activity was 1.3%.

`COc1ccc(/C(O)=C2/C(=O)C(=O)N(CCN(C)C)C2c2ccncc2)c(C)c1` (configuration not stated): the activity amounted to 2.3%. `COc1cc(CN2CCCC(Nc3ccc4c(c3)OCO4)C2)c(Cl)cc1O` (configuration not stated): the activity is inactive: -1.2%. As for `Cc1cc2c(SCC(=O)O)ncnc2s1`, the activity is inactive: -2.1%. As to `c1ccc(-c2nn3c(-c4ccco4)nnc3s2)nc1`, the activity is inactive: -4.2%. Regarding `Cc1cnc(SCc2cnc(C)nc2N)nc1`, the activity amounted to 2.6%. Consider `CN1CCC(N2CCCC(NC(=O)C3(N4CCCCC4)CCCCC3)C2)CC1` (configuration not stated), for which the activity came to 2.9%. Turning to `Cc1ccc(SCCSc2nc(N)cc(=O)[nH]2)cc1`, the activity was inactive: -14.1%. For `Cc1cc(=O)[nH]c(SCC(=O)N2CCCCCC2)n1`, the activity is inactive: -1.9%.

For `Cc1ccc(CN2CCN(CC#Cc3ccccc3)CC2CCO)o1` (configuration not stated), the activity was inactive: -1.5%. The same measure for `O=C1NCCN(CCc2ccccc2)C1CC(=O)N1CCC(N2CCOCC2)CC1` (configuration not stated): 7.1%.

For the compound `Cc1cn2c3c(=O)n(C)c(=O)n(C)c3nc2n1C1CCCC1`, the activity was inactive: -4.1%. In the case of `CC(C)(C)c1ccc2c(c1)N(CC(=O)N1CCOCC1)C(=O)CO2`, the activity turned out to be 6%. Turning to `Cc1c(CN2CCc3[nH]nc(-c4ccc5c(c4)OCO5)c3C2)cnn1C`, the activity was 6%.

For the compound `CCOc1cc(S(=O)(=O)NC2CCCC2)c(OCC)cc1C`, the activity worked out at 1.8%. For the compound `O=C(c1cc(COc2ccccc2)[nH]n1)N1CCN(Cc2cccs2)CC1`, the activity is 0.6%. In the case of `O=C(NC1CC(=O)N(CCCc2ccccc2)C1)C(=O)c1ccccc1` (configuration not stated), the activity is inactive: -1%. On to `COc1ccc(C2CC(=O)c3cn[nH]c3C2)cc1` (configuration not stated), for which the activity was inactive: -17.7%.

For `Cc1ccoc1C(=O)N1CCC2(CCCN(CCC3CCCCC3)C2=O)C1` (configuration not stated), the activity was found to be 8.1%. In the case of `CC(C)(CO)NC(=O)CC(c1ccccc1)c1ccc(Cl)cc1` (configuration not stated), the activity was found to be 0.5%. In the case of `O=C(Nc1ccc2[nH]c(=O)[nH]c2c1)c1cc2ccccc2o1`, the activity was inactive: -16.7%. As for `CCN(CC)CC(O)COc1cc(CN(C)Cc2nccn2CC)ccc1OC` (configuration not stated), the activity is inactive: -2.5%. In the case of `C=CCOc1ccccc1CN1CCC(CCC(=O)NCCOC)CC1`, the activity was inactive: -4.1%. Take `CCS(=O)(=O)c1ncc(CN(C)CCC2CCOCC2)n1CCOC`: the activity was 0.9%.

Take `CCCN1CCC(NC(=O)c2cn(Cc3c(F)cccc3F)nn2)CC1`: the activity came out at 20.4%.

On to `O=C1CCCN1CCCC(=O)N1CCOC(Cc2ccccc2Cl)C1` (configuration not stated), for which the activity amounted to 4.4%.

Take `COc1cccc(CN2CCCC(NCc3ccc4nonc4c3)C2)c1` (configuration not stated): the activity was inactive: -3.2%. With `CCCS(=O)(=O)c1ccccc1C(=O)N1CCc2ccccc21`, the activity came to 2.3%. As to `COc1ccccc1C(=O)C1CCCN(Cc2ccc(OCCO)cc2)C1` (configuration not stated), the activity was found to be 1.5%. As to `CN(Cc1cccnc1)Cc1ccccc1OCC(O)CN1CCCCC1` (configuration not stated), the activity stood at 2.6%. With `COc1cc(OC)cc(C(=O)NCC2CCCN(CCCSC)C2)c1` (configuration not stated), the activity was inactive: -0.2%. For `C=CCn1cc(CNC2CC(=O)N(Cc3cccc(F)c3)C2)c(C)n1` (configuration not stated), the activity is inactive: -1.3%. `CCN(CC)CCN(CC)C(=O)c1cc(COc2ccc(C)cc2OC)on1`: the activity was 4.1%. As for `Cc1nc(CC(=O)N2CCCC(CNC(=O)c3ccc(F)cc3)C2)cs1` (configuration not stated), the activity was inactive: -1.5%.

With `CC(C)n1ncnc1NC(=O)NCc1cccc(OC(F)(F)F)c1`, the activity is 4.9%.

`O=C1COc2ccc(C(=O)NC3CC3)cc2N1`: the activity was inactive: -9.4%. For the compound `CSc1ccc(C(=O)C2CCCN(C(=O)c3cccnc3SC)C2)cc1` (configuration not stated), the activity was inactive: -0.9%. As to `Cc1cc(C(=O)N2CCOC(CCCc3ccccc3)C2)nc(N)n1` (configuration not stated), the activity amounted to 1.5%. The result for `C=C(C)CN(CC)Cc1nc(-c2ccc(F)cc2)oc1C` reads 7.1%; that for `O=C(NCC1CCCN(Cc2ccncc2)C1)c1cccc(C(F)(F)F)c1` (configuration not stated), 3.6%; that for `CCN1CCN(Cc2nn(-c3ccc(F)cc3)c(N)c2-c2ccccc2)CC1`, 4.5%. As for `C=C(C)CNCc1ccc(OCC(O)CN2CCSCC2)c(OC)c1` (configuration not stated), the activity turned out to be 2.3%.

On to `O=C(Nc1cccc(F)c1)N1CCCC(CNS(=O)(=O)Cc2ccccc2)C1` (configuration not stated), for which the activity came to 6.7%. `O=C(Cc1cccnc1)N1CCC2(CCCN(Cc3ccc(F)cc3)C2=O)C1` (configuration not stated): the activity came to 7.4%.

Consider `O=C(Cc1ccc2c(c1)OCO2)NC1CCCN(C2CCCCCC2)C1` (configuration not stated), for which the activity is 0.8%. For `CCCn1c(=O)c2c(nc3n(CCCOC)c(C)c(C)n23)n(C)c1=O`, the activity was 2.7%. Consider `CCc1noc(C)c1C(=O)N1CCC(CCC(=O)N(C)Cc2ccccc2)CC1`, for which the activity was inactive: -8.5%. Regarding `CN(CC(O)COc1cccc(CNCCN2CCCC2=O)c1)C1CCCCC1` (configuration not stated), the activity amounted to 1.1%. The result for `COc1ccc(NC2CCCN(C(=O)c3cn4c(C)cccc4n3)C2)cc1` (configuration not stated) reads 1.3%. With `COc1ccc(OC)c(-c2nc(CN3CCN(C(=O)c4ccco4)CC3)c(C)o2)c1`, the activity is inactive: -4%. The result for `O=C(Cn1ccnc1)N(CC1CCN(C2Cc3ccccc3C2)CC1)CC1CCCO1` (configuration not stated) reads 7.8%; that for `CSc1ncc(Cl)c(C(=O)Nc2ccc(Br)cc2)n1`, inactive: -12.9%. The result for `Fc1cccc(C2(CNCCNc3cccnc3)CCOC2)c1` (configuration not stated) reads 8.2%; that for `Cc1ncc(CN2CCN(Cc3ccc(C)o3)C(CCO)C2)[nH]1` (configuration not stated), 4.8%; that for `CCn1cncc1CN1CCCC1c1ccc(C(=O)NCc2ccoc2)s1` (configuration not stated), 9.3%. Regarding `Cc1c(CN2CC[C@@H](N3CCOCC3)[C@H](O)C2)[nH]c2c(Cl)cccc12`, the activity was inactive: -1.8%. The result for `Cc1cc(C)c(S(=O)(=O)Nc2ncn[nH]2)c(C)c1` reads inactive: -18.4%.

`O=C(Nc1c(F)cc(F)cc1Br)c1cnn2cccnc12`: the activity turned out to be 0.1%.

As to `CC1CN(C(=O)c2ccc(OCc3ccccc3)cc2)CC(C)O1` (configuration not stated), the activity is inactive: -3.1%. For the compound `O=C1CCC(C(=O)N2CCC(Oc3cccc(F)c3)CC2)CN1CCc1ccccn1` (configuration not stated), the activity was found to be 0.7%. Regarding `CCN1CCN(CC(O)COc2ccc(CNCCCOC(C)C)cc2OC)CC1` (configuration not stated), the activity is 4%. `CCc1nc(CN2CCC(CCC(=O)Nc3ccccc3)CC2)c(C)[nH]1`: the activity came to 3.8%. The result for `Cc1ccc2c(C)nc(Nc3nc(C(C)C)cc(=O)[nH]3)nc2c1` reads 10.8%. As to `CN(CCOc1ccccc1)Cc1cnc(S(C)(=O)=O)n1CC1CCCO1` (configuration not stated), the activity was inactive: -6.1%.

Regarding `COc1ccc(CCN2CCCC(CN(C)C(=O)c3cccnc3)C2)cc1` (configuration not stated), the activity was inactive: -1.3%.

The values above are taken from PubChem BioAssay AID1347421 (Sanford-Burnham Center for Chemical Genomics, 2020).
